Results are given in words; binding and its absence hold for the method and conditions named. In cells and extracts the contact can be indirect. Some binding calls cover weakened binding; strength is not graded here.

By UniProt entry, the sequences of proteins in these tests, tags left out.
UniProt Q16665: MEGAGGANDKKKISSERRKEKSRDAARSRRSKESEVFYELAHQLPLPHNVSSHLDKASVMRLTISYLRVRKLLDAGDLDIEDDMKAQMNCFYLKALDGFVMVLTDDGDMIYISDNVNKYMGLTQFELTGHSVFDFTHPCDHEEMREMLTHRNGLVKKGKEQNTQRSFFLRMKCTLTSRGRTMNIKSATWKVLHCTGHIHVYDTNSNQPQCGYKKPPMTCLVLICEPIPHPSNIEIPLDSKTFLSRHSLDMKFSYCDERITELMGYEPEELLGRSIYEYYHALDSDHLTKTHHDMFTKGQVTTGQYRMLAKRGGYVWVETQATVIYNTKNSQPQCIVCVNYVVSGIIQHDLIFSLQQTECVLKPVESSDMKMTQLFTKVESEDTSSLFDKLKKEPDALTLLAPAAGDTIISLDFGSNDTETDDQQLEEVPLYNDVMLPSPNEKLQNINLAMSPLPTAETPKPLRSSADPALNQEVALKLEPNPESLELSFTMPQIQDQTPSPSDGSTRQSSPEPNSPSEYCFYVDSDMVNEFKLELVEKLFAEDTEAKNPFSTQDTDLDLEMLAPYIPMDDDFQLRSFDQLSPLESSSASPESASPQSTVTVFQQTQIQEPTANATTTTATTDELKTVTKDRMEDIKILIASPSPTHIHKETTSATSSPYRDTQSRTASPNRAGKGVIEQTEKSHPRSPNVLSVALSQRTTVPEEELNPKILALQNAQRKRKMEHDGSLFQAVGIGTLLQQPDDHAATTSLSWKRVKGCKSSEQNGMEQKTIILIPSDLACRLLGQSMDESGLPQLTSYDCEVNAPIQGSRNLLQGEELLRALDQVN

The target of the assay is hypoxia-inducible factor (HIF)-1α (human (endogenous in placenta)) (UniProt Q16665). Kind of assay: co-IP; anti-HIF-1α as pull-down antibody (4 µg) on placental lysates of SPT, IUGR and PE pregnancies (n = 3 each); 400 mg total protein lysate as printed, 1000 mg of SPT proteins to equalise the number of HIF complexes; immunoblot for Sprouty2. On the technique in general: Immunoblotting shows a protein as a band on a membrane.

B1: Sprouty2 (protein, UniProt O43597 1-315)
chain: MEARAQSGNGSQPLLQTPRDGGRQRGEPDPRDALTQQVHVLSLDQIRAIRNTNEYTEGPTVVPRPGLKPAPRPSTQHKHERLHGLPEHRQPPRLQHSQVHSSARAPLSRSISTVSSGSRSSTRTSTSSSSSEQRLLGSSFSSGPVADGIIRVQPKSELKPGELKPLSKEDLGLHAYRCEDCGKCKCKECTYPRPLPSDWICDKQCLCSAQNVIDYGTCVCCVKGLFYHCSNDDEDNCADNPCSCSQSHCCTRWSAMGVMSLFLPCLWCYLPAKGCLKLCQGCYDRVNRPGCRCKNSNTVCCKVPTVPPRNFEKPT
Take B1: the binding entry was “binds”.

(Values after publication PMC8910827.)
